## Percent effect of library compounds

Protein sequences, listed by entry. Tags and fused reporters are not part of them. Residues count along the entry.
UniProt P9WNZ1, whole entry: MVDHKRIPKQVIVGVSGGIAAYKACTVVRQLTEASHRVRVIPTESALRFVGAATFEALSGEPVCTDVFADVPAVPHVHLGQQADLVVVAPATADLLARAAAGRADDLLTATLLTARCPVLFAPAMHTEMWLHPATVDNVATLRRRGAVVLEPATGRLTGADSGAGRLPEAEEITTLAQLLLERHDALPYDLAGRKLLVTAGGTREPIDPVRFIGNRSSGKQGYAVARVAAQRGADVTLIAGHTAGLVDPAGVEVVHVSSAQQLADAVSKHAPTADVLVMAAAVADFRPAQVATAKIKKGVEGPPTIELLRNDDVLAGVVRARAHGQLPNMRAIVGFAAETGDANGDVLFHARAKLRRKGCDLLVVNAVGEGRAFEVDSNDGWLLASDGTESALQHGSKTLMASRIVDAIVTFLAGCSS
UniProt I6X8D2, whole entry: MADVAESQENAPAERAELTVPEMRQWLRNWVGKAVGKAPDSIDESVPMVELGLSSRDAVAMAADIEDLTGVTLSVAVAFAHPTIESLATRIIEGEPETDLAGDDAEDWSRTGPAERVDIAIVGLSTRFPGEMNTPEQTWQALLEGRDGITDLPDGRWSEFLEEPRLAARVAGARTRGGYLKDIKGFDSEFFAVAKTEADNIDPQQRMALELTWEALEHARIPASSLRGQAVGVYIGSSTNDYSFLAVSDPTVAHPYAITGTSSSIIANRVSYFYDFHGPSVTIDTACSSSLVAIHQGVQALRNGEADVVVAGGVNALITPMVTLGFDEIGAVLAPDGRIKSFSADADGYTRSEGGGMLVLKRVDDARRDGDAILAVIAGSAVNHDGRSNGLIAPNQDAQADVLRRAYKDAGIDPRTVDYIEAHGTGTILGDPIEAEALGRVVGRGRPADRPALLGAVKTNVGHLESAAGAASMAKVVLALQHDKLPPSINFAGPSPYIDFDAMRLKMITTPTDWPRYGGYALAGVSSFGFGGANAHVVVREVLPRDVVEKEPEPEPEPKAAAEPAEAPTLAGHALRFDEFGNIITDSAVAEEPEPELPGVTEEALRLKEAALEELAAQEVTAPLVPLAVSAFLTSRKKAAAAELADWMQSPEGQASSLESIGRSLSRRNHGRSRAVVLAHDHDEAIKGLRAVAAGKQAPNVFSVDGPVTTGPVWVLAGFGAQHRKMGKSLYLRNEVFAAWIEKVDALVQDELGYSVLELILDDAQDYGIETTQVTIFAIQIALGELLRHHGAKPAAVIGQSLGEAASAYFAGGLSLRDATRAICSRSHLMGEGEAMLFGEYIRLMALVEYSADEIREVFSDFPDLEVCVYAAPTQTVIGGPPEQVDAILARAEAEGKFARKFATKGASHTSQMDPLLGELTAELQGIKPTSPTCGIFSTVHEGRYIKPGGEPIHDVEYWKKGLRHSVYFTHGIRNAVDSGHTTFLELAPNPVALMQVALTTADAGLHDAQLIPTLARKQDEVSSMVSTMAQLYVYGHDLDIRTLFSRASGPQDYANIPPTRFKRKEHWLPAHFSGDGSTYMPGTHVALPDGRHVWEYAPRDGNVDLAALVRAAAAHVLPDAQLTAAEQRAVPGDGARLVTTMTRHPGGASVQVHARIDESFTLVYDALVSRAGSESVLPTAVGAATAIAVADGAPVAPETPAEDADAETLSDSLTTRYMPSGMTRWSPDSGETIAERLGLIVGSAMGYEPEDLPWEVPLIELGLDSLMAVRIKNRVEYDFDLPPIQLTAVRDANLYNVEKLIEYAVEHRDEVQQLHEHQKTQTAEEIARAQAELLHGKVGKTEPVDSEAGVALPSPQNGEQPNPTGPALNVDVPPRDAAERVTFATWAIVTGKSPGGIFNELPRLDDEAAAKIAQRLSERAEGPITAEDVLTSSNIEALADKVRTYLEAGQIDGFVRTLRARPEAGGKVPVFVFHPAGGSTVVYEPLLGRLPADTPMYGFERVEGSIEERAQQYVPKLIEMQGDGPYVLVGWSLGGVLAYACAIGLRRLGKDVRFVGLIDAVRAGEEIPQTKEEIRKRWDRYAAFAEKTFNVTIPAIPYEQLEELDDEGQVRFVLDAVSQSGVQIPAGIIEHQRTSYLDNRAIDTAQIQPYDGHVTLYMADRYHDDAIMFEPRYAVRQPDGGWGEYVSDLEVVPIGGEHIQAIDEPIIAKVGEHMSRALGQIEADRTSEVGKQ
UniProt P9WFT3, whole entry: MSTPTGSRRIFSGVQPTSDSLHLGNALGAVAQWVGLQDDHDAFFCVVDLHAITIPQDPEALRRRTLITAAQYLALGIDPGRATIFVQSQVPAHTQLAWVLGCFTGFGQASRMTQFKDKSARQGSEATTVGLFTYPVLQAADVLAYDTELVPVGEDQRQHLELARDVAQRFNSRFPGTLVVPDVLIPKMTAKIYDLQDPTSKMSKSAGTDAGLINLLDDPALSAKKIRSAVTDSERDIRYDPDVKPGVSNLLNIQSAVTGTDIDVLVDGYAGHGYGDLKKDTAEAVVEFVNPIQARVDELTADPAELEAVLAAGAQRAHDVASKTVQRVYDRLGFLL
UniProt A4I591, 1-473: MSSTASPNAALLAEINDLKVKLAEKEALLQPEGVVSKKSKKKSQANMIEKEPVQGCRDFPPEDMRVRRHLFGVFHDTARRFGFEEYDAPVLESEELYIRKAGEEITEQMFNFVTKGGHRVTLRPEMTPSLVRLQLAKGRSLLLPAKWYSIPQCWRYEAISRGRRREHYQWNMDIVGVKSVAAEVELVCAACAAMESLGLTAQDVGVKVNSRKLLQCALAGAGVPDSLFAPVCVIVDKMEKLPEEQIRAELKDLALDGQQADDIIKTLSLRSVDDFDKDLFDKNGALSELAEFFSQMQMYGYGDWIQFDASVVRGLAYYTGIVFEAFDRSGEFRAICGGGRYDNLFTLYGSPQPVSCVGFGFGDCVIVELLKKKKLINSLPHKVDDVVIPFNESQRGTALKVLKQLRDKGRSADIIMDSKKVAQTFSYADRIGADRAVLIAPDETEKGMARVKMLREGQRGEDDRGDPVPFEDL

CoaBC: 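Coenzyme A biosynthesis protein CoaBC, Mycobacterium tuberculosis (UniProt P9WNZ1). Enzyme assay of CoaBC with a phosphate dye (Biomol Green) read at 650 nm. Concentration: 30 µM. Direction is inferred from only a few compounds that gave an IC50; most scored high, so higher reads as stronger inhibition. Most strong results did not repeat in a second test. About 67,000 compounds were tested under these conditions; 0.06% (about 40) showed 50% or more at least once.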
Pks13 thioesterase: 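Enzyme assay of the thioesterase domain of polyketide synthase 13; the read-out is not stated. Target: Polyketide synthase Pks13, Mycobacterium tuberculosis (UniProt I6X8D2). Compounds at 30 µM. The record gives no direction; the compounds picked for IC50 retests had high values, so higher reads as stronger inhibition. Of about 67,000 compounds tested this way, about 300 (0.46%) reached 50% or more in at least one test.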
MtTrpRS: 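Enzyme assay of tryptophanyl-tRNA synthetase; the read-out is not stated. Target: Tryptophan-tRNA ligase, Mycobacterium tuberculosis (UniProt P9WFT3). Concentration: 10 µM. Direction is not recorded; retested compounds ran higher, which suggests that high means inhibition. About 65,000 compounds were tested under these conditions; 0.098% (about 64) showed 50% or more at least once.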
LiHisRS: 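Enzyme assay of histidyl-tRNA synthetase; the read-out is not stated. Target: Histidine-tRNA ligase, Leishmania infantum (UniProt A4I591). Compounds at 30 µM. Higher reads as stronger inhibition (inferred: compounds with an IC50 in retests scored well above the rest). The assay is labelled LdHisRS but filed under L. infantum. Size under these conditions: about 69,000 compounds, about 410 of them at 50% or above in at least one test.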

Values are the deposited “Percent Effect”, in %.
The controls that fix the scale are not given in the record; negative values are as filed.
The compounds are a random part of those screened.

For c1cn(Cc2ccc(N3CCCN(C4CCCC4)CC3)nc2)cn1 the result was CoaBC: -6.472%; Pks13 thioesterase: -28.2%; MtTrpRS: -2.271%; LiHisRS: 5.882%.
For Cc1ccc(CC(=O)NCC(O)c2ccc(Cl)cc2Cl)cn1 (centres unmarked) the result was Pks13 thioesterase: 6.914%; MtTrpRS: 4.137%; LiHisRS: 12.68%.
For CNc1cc2c(nn1)CCN(C(=O)c1ccoc1)C2 the result was CoaBC: 6.154%; Pks13 thioesterase: -15.69%; MtTrpRS: -3.206%; LiHisRS: 10.67%.
For Cc1cc(C(=O)N2CCCN(Cc3cnn(C)c3)CC2)no1 the result was CoaBC: 4.474%; Pks13 thioesterase: -26.75%; MtTrpRS: 0.000006%; LiHisRS: 13.89%.
For Cc1noc(C(C)C)c1C(=O)NCc1cccnc1 the result was CoaBC: -3.742%; Pks13 thioesterase: -6.03%; MtTrpRS: 2.824%; LiHisRS: 12.17%.
For OCc1ccc(CN2CCC(n3cc(C4CCCCC4)nn3)CC2)o1 the result was CoaBC: -4.176%; Pks13 thioesterase: -13.83%; MtTrpRS: -0.3882%; LiHisRS: 0%.
For CC(C)N(CC(N)=O)Cc1csc(-c2ncccn2)n1 the result was CoaBC: -3.212%; Pks13 thioesterase: -33.84%; MtTrpRS: -1.571%; LiHisRS: 6.897%.
For COc1cccc(C(=O)NCC2CCN(C(=O)c3ccoc3)CC2)c1 the result was CoaBC: 0.8739%; Pks13 thioesterase: -1.47%; MtTrpRS: -0.1564%; LiHisRS: 4.959%.
For CC(=O)N1[C@H](CN(C)C)C[C@@H]2CN(C(=O)c3cnc(C)cn3)CC[C@@H]21 the result was CoaBC: 2.188%; Pks13 thioesterase: -40.64%; MtTrpRS: -4.36%; LiHisRS: 13.46%.
For Cc1cccc(-c2nc(CN3CCc4c(ncn4C)C3)no2)c1 the result was CoaBC: -2.651%; Pks13 thioesterase: -5.682%; MtTrpRS: -0.5596%; LiHisRS: 5.479%.
For COCCn1c(CN2CCCCO2)cnc1S(=O)(=O)CC1CCCCC1 the result was CoaBC: 4.822%; Pks13 thioesterase: -17.32%; MtTrpRS: -1.227%; LiHisRS: 20%.
For O=C1C[C@H]2CC[C@@H](CN1)N2C(=O)CCCc1ccc(Cl)cc1 the result was CoaBC: -0.2469%; Pks13 thioesterase: -24.93%; MtTrpRS: -4.385%; LiHisRS: 8.392%.
For Nc1cc2c(nn1)CCN(C(=O)CC1CCCC1)C2 the result was CoaBC: -4.884%; Pks13 thioesterase: -31.65%; MtTrpRS: -0.236%; LiHisRS: -28.09%.
For CCCc1nc2c(c(C)c(C)n2Cc2ccccn2)c(N)c1CC the result was CoaBC: 2.594%; Pks13 thioesterase: -30.14%; MtTrpRS: -6.159%; LiHisRS: 3.297%.
For Cc1occc1C(=O)N1CCOCC2(CCN(C3CCOCC3)C2)C1 (centres unmarked) the result was CoaBC: 5.764%; Pks13 thioesterase: 12.98%; MtTrpRS: 2.49%; LiHisRS: 25.64%.
For CC(C)(C)NC(=O)C1CCCCN1Cc1nccn1CC(F)(F)F (centres unmarked) the result was CoaBC: 1.595%; Pks13 thioesterase: -24.42%; MtTrpRS: -2.549%; LiHisRS: 17.65%.
For O=C1CCCCN1c1cccc(CNC2CCCC2)c1 the result was CoaBC: 7.949%; Pks13 thioesterase: -12.35%; MtTrpRS: 1.173%; LiHisRS: 10.67%.
For CS(=O)(=O)N1C[C@@H]2COC[C@]2(CN2CCOCC2)C1 the result was CoaBC: 3.74%; Pks13 thioesterase: -29.45%; MtTrpRS: 3.85%; LiHisRS: 14.29%.
For COc1cccc(OCC(=O)Nc2cc(C)cnc2OC)c1 the result was CoaBC: 0.3241%; Pks13 thioesterase: 3.857%; MtTrpRS: -5.436%; LiHisRS: -3.175%.
For COc1ccc(Nc2nc3c(C)nn(C)c3c(=O)n2C)cc1 the result was CoaBC: 5.626%; Pks13 thioesterase: 9.052%; MtTrpRS: 2.151%; LiHisRS: 12.39%.
For O=C(c1cccnc1-n1cncn1)N1CCN(c2ccccc2)CC1 the result was CoaBC: 1.603%; Pks13 thioesterase: -27.52%; MtTrpRS: -8.73%; LiHisRS: 26.03%.
For NC(=O)C1(Cc2ccc(-c3ccccc3)cc2)CCNC1 (centres unmarked) the result was CoaBC: 19.35%; Pks13 thioesterase: -25.27%; MtTrpRS: 29.9%; LiHisRS: 2.837%.
For N#Cc1cccc(NC2CC(=O)N(Cc3ccccc3Cl)C2)n1 (centres unmarked) the result was CoaBC: -1.241%; Pks13 thioesterase: -36.04%; MtTrpRS: -3.871%; LiHisRS: -4.255%.
For CCc1nc(NCCCn2cccn2)c2c(n1)c(C)nn2C the result was CoaBC: 10.36%; Pks13 thioesterase: -24.07%; MtTrpRS: -0.402%; LiHisRS: 17.48%.
For Cn1cc(C(=O)N2CCCC(c3ncc[nH]3)C2)cn1 (centres unmarked) the result was CoaBC: 2.539%; Pks13 thioesterase: -8.455%; MtTrpRS: 1.102%; LiHisRS: 12.9%.

3 of the entries, repeated:

SMILES	CoaBC	Pks13 thioesterase	MtTrpRS	LiHisRS
O=C1C[C@H]2CC[C@@H](CN1)N2C(=O)CCCc1ccc(Cl)cc1	-0.2469%	-24.93%	-4.385%	8.392%
CC(=O)N1[C@H](CN(C)C)C[C@@H]2CN(C(=O)c3cnc(C)cn3)CC[C@@H]21	2.188%	-40.64%	-4.36%	13.46%
CCCc1nc2c(c(C)c(C)n2Cc2ccccn2)c(N)c1CC	2.594%	-30.14%	-6.159%	3.297%

Measurements from “University of Dundee, Small-Polar-MMV Screening Library” (2021), ChEMBL document CHEMBL3988442.